The text below walks through data of publication PMC4102813.

The experiment concerns the target Sp1 (human (endogenous in SPC-A1/DTX)), P08047. Briefly: co-IP; Co-IP kit (Thermo Fisher); antibodies against Sp1, HDAC1 and HDAC4 coupled into spin columns; pre-cleared SPC-A1/DTX cell lysate; western blot. To be noted: remark: other sources report otherwise. For orientation: In western blotting, separated proteins are transferred to a membrane and probed.

These are yes or no findings as the source states them, for the method shown. Binding seen in cells or lysates may run through a third protein. Some entries that bind do so weakly or less than the wild type.

B1: HDAC4, P56524 1-1084 (enzyme)
chain: MSSQSHPDGLSGRDQPVELLNPARVNHMPSTVDVATALPLQVAPSAVPMDLRLDHQFSLPVAEPALREQQLQQELLALKQKQQIQRQILIAEFQRQHEQLSRQHEAQLHEHIKQQQEMLAMKHQQELLEHQRKLERHRQEQELEKQHREQKLQQLKNKEKGKESAVASTEVKMKLQEFVLNKKKALAHRNLNHCISSDPRYWYGKTQHSSLDQSSPPQSGVSTSYNHPVLGMYDAKDDFPLRKTASEPNLKLRSRLKQKVAERRSSPLLRRKDGPVVTALKKRPLDVTDSACSSAPGSGPSSPNNSSGSVSAENGIAPAVPSIPAETSLAHRLVAREGSAAPLPLYTSPSLPNITLGLPATGPSAGTAGQQDAERLTLPALQQRLSLFPGTHLTPYLSTSPLERDGGAAHSPLLQHMVLLEQPPAQAPLVTGLGALPLHAQSLVGADRVSPSIHKLRQHRPLGRTQSAPLPQNAQALQHLVIQQQHQQFLEKHKQQFQQQQLQMNKIIPKPSEPARQPESHPEETEEELREHQALLDEPYLDRLPGQKEAHAQAGVQVKQEPIESDEEEAEPPREVEPGQRQPSEQELLFRQQALLLEQQRIHQLRNYQASMEAAGIPVSFGGHRPLSRAQSSPASATFPVSVQEPPTKPRFTTGLVYDTLMLKHQCTCGSSSSHPEHAGRIQSIWSRLQETGLRGKCECIRGRKATLEELQTVHSEAHTLLYGTNPLNRQKLDSKKLLGSLASVFVRLPCGGVGVDSDTIWNEVHSAGAARLAVGCVVELVFKVATGELKNGFAVVRPPGHHAEESTPMGFCYFNSVAVAAKLLQQRLSVSKILIVDWDVHHGNGTQQAFYSDPSVLYMSLHRYDDGNFFPGSGAPDEVGTGPGVGFNVNMAFTGGLDPPMGDAEYLAAFRTVVMPIASEFAPDVVLVSSGFDAVEGHPTPLGGYNLSARCFGYLTKQLMGLAGGRIVLALEGGHDLTAICDASEACVSALLGNELDPLPEKVLQQRPNANAVRSMEKVMEIHSKYWRCLQRTTSTAGRSLIEAQTCENEEAETVTAMASLSVGVKPAEKRPDEEPMEEEPPL
For the molecule B1, the binding result is listed as “binds”.
